{
  "sequences": {"note": "Chains of the proteins cited; added tags and fusions are not shown. Lines headed by an entry give the natural chain unless they say otherwise; changes in a name come on top. Residues count along the entry.", "UniProt Q95X71": "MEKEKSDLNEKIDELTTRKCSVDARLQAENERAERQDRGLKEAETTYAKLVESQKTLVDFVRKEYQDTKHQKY", "UniProt P02769, residues 25-607": "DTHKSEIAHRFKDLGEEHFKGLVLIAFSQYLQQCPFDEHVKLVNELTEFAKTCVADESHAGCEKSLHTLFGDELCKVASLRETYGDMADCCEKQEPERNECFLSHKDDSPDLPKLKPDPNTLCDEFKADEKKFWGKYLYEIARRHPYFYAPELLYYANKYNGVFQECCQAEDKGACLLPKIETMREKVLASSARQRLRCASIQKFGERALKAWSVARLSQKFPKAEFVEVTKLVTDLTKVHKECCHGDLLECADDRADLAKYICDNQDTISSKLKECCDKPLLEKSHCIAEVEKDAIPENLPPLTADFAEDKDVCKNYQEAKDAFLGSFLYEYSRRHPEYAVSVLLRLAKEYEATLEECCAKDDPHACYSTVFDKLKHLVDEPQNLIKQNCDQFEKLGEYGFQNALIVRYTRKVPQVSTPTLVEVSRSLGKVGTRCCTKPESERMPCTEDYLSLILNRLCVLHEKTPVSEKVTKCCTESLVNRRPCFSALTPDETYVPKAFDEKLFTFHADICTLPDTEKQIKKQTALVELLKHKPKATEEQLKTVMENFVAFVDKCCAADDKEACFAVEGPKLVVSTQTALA"},
  "source": "paper PMC11722412",
  "target": "SSNA-1, the Caenorhabditis elegans ortholog of Sjogren's Syndrome Nuclear Antigen 1 (C. elegans) (UniProt Q95X71)",
  "test": "co-sedimentation; purified proteins; SSNA-1 filaments (10 μM) or GMPCPP microtubules (10 μM) incubated 10 min at room temperature with ZYG-1 or BSA (1.25 μM), 30 μL; 80,000 rpm (278,088 x g), TLA-120.2, 10 min, 25°C; soluble and pellet fractions by SDS-PAGE and immunoblotting; in triplicate; both purified",
  "note": "No constants are given. Whether binding was seen depends on the method and setting.",
  "data": [
    {"substance": "BSA (from UniProt P02769 25-607)", "values": [
      {"measurement": "binding", "result": "no binding (tested: 1.25 μM BSA, 10 μM SSNA-1)"}
    ]}
  ]
}
